In paper PMC3081313, “Factors Defining the Functional Oligomeric State of Escherichia coli DegP Protease” (PLoS ONE, 2011):

Target: T1, proteolytically inactive DegP_(S210A) (Escherichia coli) (UniProt P0C0V0)
T1 sequence: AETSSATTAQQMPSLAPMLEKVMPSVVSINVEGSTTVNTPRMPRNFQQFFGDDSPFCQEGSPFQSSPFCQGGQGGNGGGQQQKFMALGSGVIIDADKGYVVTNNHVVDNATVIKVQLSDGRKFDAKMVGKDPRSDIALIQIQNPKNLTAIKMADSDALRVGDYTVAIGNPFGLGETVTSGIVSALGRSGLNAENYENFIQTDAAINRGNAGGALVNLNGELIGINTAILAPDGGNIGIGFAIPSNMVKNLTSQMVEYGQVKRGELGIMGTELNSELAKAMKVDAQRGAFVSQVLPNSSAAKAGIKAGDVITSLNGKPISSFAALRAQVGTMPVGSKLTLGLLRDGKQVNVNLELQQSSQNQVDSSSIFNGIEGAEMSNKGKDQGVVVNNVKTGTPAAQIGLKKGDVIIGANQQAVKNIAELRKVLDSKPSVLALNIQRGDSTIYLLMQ
Assay: SEC; DegP_(S210A) mixed with full-length α-casein (concentrations in the figure), 37°C 10 min; Superdex 200 in 50 mM HEPES pH 7.3, 150 mM NaCl at 4°C; both purified

- binding: binds
Substance: full-length α-casein

These are yes or no findings as the source states them, for the method shown. Binding can be weak; no strength is given.
